Data from US12653181B2, “Control of ripening and senescence in pre-harvest and post-harvest plants and plant materials by manipulating alternative oxidase activity” (Washington State University, priority 2012, dated 2026).

Legend:
1-MCP pre-treated fruit = assay: Large scale consumer trial 2016 (overall liking); parameters: species or system pear
[1] = system: sliced 1-MCP pre-treated pear fruit; assay: Consumer preference trials 2014 and 2015 of sliced 1-MCP fruit treated with glyoxylic acid; settings: rank among 4 samples

`O=CC(=O)O` [glyoxylic acid] was tested, and the “Percentage of panelists who rated the sample as 1 (most preferred)” value (“Percentage … (most preferred)” below) (1-MCP pre-treated fruit; 1% RC) was “(18%)”, the “Percentage of panelists who rated the sample as 2” value (shortened to “Percentage … as 2”) (1-MCP pre-treated fruit; 1% RC) was “(24%)” and the “Percentage of panelists who rated the sample as 3” value (shortened to “Percentage … as 3”) (1-MCP pre-treated fruit; 1% RC) was “(30%)”. The “Percentage of panelists who rated the sample as 4 (least preferred)” value (shortened to “Percentage … (least preferred)”) (1-MCP pre-treated fruit; 1% RC) was “(28%)”, the “Percentage … (most preferred)” value (1-MCP pre-treated fruit; 2% RC) was “(35%)” and the “Percentage … as 2” value (1-MCP pre-treated fruit; 2% RC) was “(19%)”. For the same compound, the “Percentage … as 3” value (1-MCP pre-treated fruit; 2% RC) was “(24%)”, the “Percentage … (least preferred)” value (1-MCP pre-treated fruit; 2% RC) was “(22%)” and the “Percentage … (most preferred)” value (1-MCP pre-treated fruit; 3% RC) was “(28%)”. The “Percentage … as 2” value (1-MCP pre-treated fruit; 3% RC) was “(32%)”, the “Percentage … as 3” value (1-MCP pre-treated fruit; 3% RC) was “(20%)” and the “Percentage … (least preferred)” value (1-MCP pre-treated fruit; 3% RC) was “(20%)”. The Appearance ranking ([1]; 1% RC, 2014) was “↓”, the Taste/Flavor ranking ([1]; 1% RC, 2015 - Anjou) was “↓” and the Texture ranking ([1]; 1% RC, 2015 - Anjou) was “↓”. For the same compound, the Appearance ranking ([1]; 2% RC, 2014) was “↓”, the Texture ranking ([1]; 2% RC, 2014) was “↓” and the Appearance ranking ([1]; 2% RC, 2015 - Anjou) was “↓”. The Overall acceptance ranking ([1]; 2% RC, 2015 - Anjou) was “↓”, the Taste/Flavor ranking ([1]; 2% RC, 2015 - Anjou) was “↓” and the Texture ranking ([1]; 2% RC, 2015 - Anjou) was “↓”. The Overall acceptance ranking ([1]; 3% RC, 2014) was “↓” and the Taste/Flavor ranking ([1]; 3% RC, 2014) was “↓”.
